Assay results published in PMC7840056.

Target: NiuDΔ7, C-terminally truncated NiuD fused to the T18 fragment (Helicobacter pylori (strain B128))
Assay: two-hybrid; Bacterial Adenylate Cyclase Two-Hybrid (BACTH) in E. coli BTH101; SlyD fused to T25, Niu proteins fused to T18 (pUT18); LB with IPTG 10^-3 M overnight at 30°C; ß-galactosidase activity in Miller units

B1: SlyD-ΔCter mutant (C-terminal His- and Cys-rich region from residue 155 removed) fused to the T25 fragment (domain or fragment, UniProt O25748 1-154)
chain: MQNHDLESIKQAALIEYEVREQGSSIVLDSNISKEPLEFIIGTNQIIAGLEKAVLKAQIGEWEEVVIAPEEAYGVYESSYLQEVPRDQFEGIELEKGMSVFGQTEDNQTIQAIIKDFSATHVMVDYNHPLAGKTLAFRFKVLGFREVSEEEILA
- binding: binds

Results are given in words; binding and its absence hold for the method and conditions named. Binding can be weak; no strength is given. Tags and fused reporters may be left off the sequences shown.
